Source: patent US20170360949A1 (TIANJIN INSTITUTE OF INDUSTRIAL BIOTECHNOLOGY CHINESE …, published 2017)
These are yes or no findings as the source states them, for the method shown. Binding seen in cells or lysates may run through a third protein. Some results given as binding are weak or reduced against the parent protein; the word gives no strength.

Target: Z1Z2 (two Ig domains at the N terminus of the titin molecule) (human)
Experiment: complex formation and co-purification as in Example 1

B1: GLTe-G (protein)
chain: HGEGTFTSDVSSYLEGQAAKEFIAWLVKGRGGGGGSGGGGSGGGGSAMATSELSSEVSEENSERREAFWAEWKDLTLSTRPEEGSSLHEEDTQRHETYHQQGQSQVLVQRSPWLMMRMGILGRGLQEYQLPYQRVLP
- binding: binds
